The full ranking holds about 33,000 sequences; the median of “E-score (-0.5 to 0.5)” is about -8e-05, and the highest 2% start at about 0.23. The list shows a part of the results.
The sequences below were run against T1, Nrg2 (UniProt P38082) (assay: PBM E-score (8-mer binding enrichment) (E-score (-0.5 to 0.5)); higher = stronger / more preferred TF binding). Conditions: protein concentration: 100 nM; construct: GST-full length.
T1 sequence: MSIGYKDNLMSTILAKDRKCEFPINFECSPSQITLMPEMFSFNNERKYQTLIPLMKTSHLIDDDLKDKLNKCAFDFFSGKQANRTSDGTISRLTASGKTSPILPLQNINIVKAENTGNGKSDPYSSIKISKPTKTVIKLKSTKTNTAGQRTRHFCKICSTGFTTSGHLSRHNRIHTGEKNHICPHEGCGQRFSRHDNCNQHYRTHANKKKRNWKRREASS
Outline: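 Universal all-10-mer Agilent arrays, double-stranded by primer extension on fresh or once-stripped slides, were probed with about 100-200 nM GST-tagged yeast transcription factors made by PURExpress. Fluorescent anti-GST detected bound protein, and masliner normalised the scans. E-scores from the Universal PBM Analysis Suite were given to each ungapped eight-base word pooled with its reverse complement.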

Sequence	PBM E-score
GGTTCCAC	-0.0226
ATTGGGCA	0.0365
CAGTCTAG	-0.184
AGTTTCCG	0.119
ACGGCCCA	-0.125
ATCGCTGG	-0.163
CTAGGTCA	-0.0616
TGAATCAA	0.232
ATCATCTC	0.139
ACGTAGAA	0.0668
AAACACCA	-0.0101
GTTCAACA	0.103
AAAGTCTA	-0.0546
ATTCCACA	0.243
ACTGACGC	-0.0821
GAGAACAA	0.221
CACCTTCC	-0.0147
TGCTGCCA	-0.0663
CCCATCAA	0.0956
GTATAGGA	-0.0401
AAGTTCCC	-0.0166
GCCCCAGC	0.0519
AGGACTTG	-0.202
GCGAAGGA	-0.138
ACGAGCGT	-0.0647

Sequence	PBM E-score
CGTCTGGA	-0.252
AGCCATGC	-0.0314
AACTTAGA	0.0761
AGATGGGG	-0.0454
GGATCCTA	0.0664
ATTTCCAA	-0.0757
CTCGCGGA	0.0152
CCATCCAG	-0.107
GACATTGA	0.11
AAATAGCA	-0.076
AGCTTTAT	-0.0237
CACTAGAC	-0.0854
AGCTCACA	-0.0193
ACTGCTAA	-0.0497
ATAGTGCA	0.114
CCAACCGA	0.104
AGGCCCCA	-0.115
GATGCAGA	0.056
CCTGAACG	0.0198
CTAACGAG	-0.055
ACACACAA	0.0532
AGCTGAGG	-0.16
CGAGGACC	-0.056
CCGGTTCG	-0.125
CGAGCGCC	-0.107

Sequence	PBM E-score
ACCCCTAA	0.172
ACAAACGT	-0.0396
ACAAAGGT	0.103
GGTTTGAC	-0.147
CGTAGAAG	-0.049
ATACGTGG	-0.0714
TAAATCCA	0.18
ATATCTGG	0.0594
ACTACGAC	-0.011
CTTCATTC	0.0537
CTCCGCAG	0.0552
CTCGCTCA	0.069
GCATATAA	-0.0127
CACATTGC	0.0874
ATCGGATA	0.122
CTGCCTTA	-0.0737
CGTGATCC	-0.0253
CTGGCGCC	0.281
CACCCTAC	0.0654
CCCTAAAG	-0.143
CGGGGAGA	-0.201
CTGAGCTC	0.118
AAGCAAGG	0.128
AACCTCAG	0.072
TACCAGGA	0.181

Sequence	PBM E-score
TAAAGTCA	0.0955
ATGTAGCA	0.0546
CAAGGCCC	-0.0232
AGAATCGG	-0.129
ACTATATG	-0.00885
TTAGTGAA	0.0802
CAAAAGAC	-0.036
GATGCCCA	0.0428
GAGGATGC	-0.141
TATTGCAA	0.253
CGCAAAAG	-0.0895
CGTACCTA	-0.179
CATATCCC	0.214
CGACTCAC	-0.0757
AGGGGAAT	0.155
GGAAGCAC	0.00747
CTTAGAGA	-0.105
CTAGAGAA	-0.028
CCCCTTCC	-0.187
ATTCACAA	0.227
ACTAAAGG	0.0464
GAATGGGC	0.035
CGCACGCG	-0.0533
CAGAGCAC	0.0415
GATCTGGC	0.0551

Sequence	PBM E-score
GGGGGCAC	-0.336
ATCGGTGG	-0.15
ATCCGATG	0.106
ACCCATCA	0.00202
AGGGCCCA	0.359
AACTGGCT	-0.114
AGAGCGGG	-0.128
CGAAGGCC	-0.187
GATAAGGC	-0.121
AAAAGGCG	-0.116
CCTAATCC	-0.129
AATAAATC	0.0327
GAGTTGAA	-0.0984
CATACGAA	0.0303
CTTCCCGC	0.0249
GTCCCCTA	0.188
AGTGAACT	0.0442
AATTGCCG	-0.0513
ACTCCCCG	0.0706
GGCGGACA	-0.00785
GCCAGTTA	0.0271
CTTAAATA	-0.1
CGACCCTA	0.109
AGTCGTAT	-0.0199
GGTGACCA	-0.127

Sequence	PBM E-score
CCGATGCG	-0.107
GGCTTGGA	-0.237
CGGTACGA	-0.111
ACCCATTA	0.0341
GTGCTTGA	-0.0768
CCCACGCG	-0.081
CGAACACG	0.0814
AAGGGGCT	0.0982
CAAGTGTG	0.0311
GCGTATCC	-0.198
CGAAGTCG	0.174
ACCATAGG	-0.217
AATAAAAA	0.15
GAGTTAGA	-0.0619
GATGGTAA	-0.0415
AGTTGGCG	0.0156
GATTATCA	0.0629
CGACGTCG	0.0466
GACAGAGA	-0.0169
CGAAGCCG	-0.0196
ACATGCTA	0.00595
CTAATTAC	0.15
GGTAATAA	0.188
AGCAATAT	0.0474
AGAGTCAA	-0.155

Sequence	PBM E-score
AGGTAGCA	-0.201
CTTGTGGA	-0.0088
ATGTACGG	0.00875
CATGGGAA	0.0176
AAGGAGAC	-0.156
CGCGTTTA	0.0535
GGAAGGGA	-0.0876
ACGGCCGC	0.0427
GGAGGTTA	-0.248
AGAAGGGA	-0.222
AAACAACT	0.165
AAAGAGGA	-0.103
GTATATCA	0.0512
GCCGAGCA	-0.166
CACCTCCC	-0.294
AAATTAGC	0.0728
CGGTCAGC	-0.0927
TTCTGAAA	0.0452
ACAACCGG	0.0311
GACGTCTA	-0.145
ATACTGTA	0.141
CATTTGCC	-0.025
AGGCGCAC	0.131
CGAGTACC	0.0748
AATGATAC	0.184

Sequence	PBM E-score
CACTTCAA	-0.0221
CGCCCTTA	-0.0359
CACTGATC	-0.0263
CCTGAAAC	0.0808
AGGGTGAA	-0.0542
CATATTCA	0.113
CGGCATGA	0.187
CTTTACCC	-0.191
CCCTGCTC	-0.017
CTGCGTGC	-0.107
GGAGACCA	-0.0418
CTCTAGGC	-0.114
CCGGACGG	-0.235
AACGCTCG	-0.029
CCAAACTC	0.0839
ACCCGCGC	0.229
CGACCTAC	-0.222
GATGGGGC	0.0459
GGCCTACA	0.0651
CGGGGAAC	-0.14
AAAATCGC	0.0796
CCGTACAG	-0.063
GTTACTAA	0.0902
CTGTTCGC	0.0452
CTGGGGTA	-0.077

Sequence	PBM E-score
GCCCACCC	0.184
GGGTCTAA	0.098
GTCGGGTA	0.052
CTTAGATA	0.0693
ATACCGTA	0.00794
AATCGCCT	0.0199
ATGGCCAT	0.0991
GTTGTGAA	0.00791
CTATTGTC	0.117
ACGGGAAT	-0.101
GATGGAAA	0.00645
TCCTCTCA	-0.0174
ACCAAGTA	0.159
ACGGCAGG	0.0215
GTATATGA	0.00303
ATTTACTA	0.0988
ATTTTTCG	0.204
GGGTTCAA	0.123
CCGGATAA	0.089
GTTGGAGA	0.023
CTCTCCCA	-0.0787
AGAGTAAC	-0.121
ACGATAGG	-0.0145
TCAACTAA	0.0939
GACGTTAA	0.201

Sequence	PBM E-score
AACTTAGG	-0.0229
GTCTGGCA	-0.0905
GGGTGCGA	-0.146
AGGTGTCA	0.211
TGTTCAAA	0.0766
CCGAAAAA	0.142
AAAAATCA	0.105
GTTCAGGA	0.0304
CCATACAA	0.0586
CAAATTAC	-0.0296
GAGACGAC	-0.0712
CTTAGGAA	-0.0218
ACCCGAAG	0.00647
CACTTTCC	-0.103
GCGTTAGC	-0.0563
ACCGTAGT	0.0254
TGTGTAAA	0.142
CAATCACA	-0.013
AAACCCAA	0.0986
ATGAATTC	0.117
AACAATCA	0.126
ATCATAGG	-0.0259
AGAGCAGG	0.0559
TATCGAGA	0.0251
ACAAGACT	0.0293

Sequence	PBM E-score
CCCAGGGG	-0.119
GGTAGCCA	-0.101
CGGGGTTA	0.119
GGTTGCGA	0.167
ATAGCAAT	0.128
AATGTTGC	0.0146
AAGTTGCG	0.0873
CAGGCACG	-0.0596
CCCGCTCC	-0.383
AAGGCCGC	0.0278
AGATTGGC	-0.165
CTTGATTA	0.114
ATAGAGTG	0.0129
GGTGGACA	-0.0162
AAATTCGG	0.205
CTATATCA	0.164
AAAATGTA	0.0718
ACGTTCGA	-0.0272
AGATGAAC	0.109
ATGACCAG	0.00391
CAGGATAC	0.0332
AATCATAT	0.0761
TAGGGAAA	-0.0116
CTGTGTAA	0.0137
GTGACAAC	0.112

Sequence	PBM E-score
AAGCCTCC	-0.222
CTTTCATA	0.103
GAGATGAA	-0.00016
AAAATAGG	0.164
CCGGCGCC	0.12
GCTAGAGA	-0.0879
ACGGTTCG	-0.169
CGACTCTC	-0.0799
GAAAGACC	-0.132
TACACAAA	0.0458
CCACCCAG	0.03
CCGCCAAA	0.111
AACTACAC	0.0363
AATAGCTA	0.04
GATAGTCA	-0.0399
GTATGGAA	-0.0935
CCTGTGAA	0.101
GCTCTTAA	-0.097
GGGGTAGA	0.0331
AAAGCATA	-0.105
ATCTATAA	-0.00946
CAGGTACA	-0.0461
CATATTCC	-0.128
GGGCTCCA	-0.377
ATGTACAC	-0.016

90 entries from above, as comma-separated lines.
Sequence,PBM E-score
GATGGAAA,0.00645
TCCTCTCA,-0.0174
ACCAAGTA,0.159
ACGGCAGG,0.0215
GTATATGA,0.00303
ATTTACTA,0.0988
ATTTTTCG,0.204
GGGTTCAA,0.123
CCGGATAA,0.089
GTTGGAGA,0.023
CTCTCCCA,-0.0787
AGAGTAAC,-0.121
ACGATAGG,-0.0145
TCAACTAA,0.0939
GACGTTAA,0.201
AACTTAGG,-0.0229
GTCTGGCA,-0.0905
GGGTGCGA,-0.146
AGGTGTCA,0.211
TGTTCAAA,0.0766
CCGAAAAA,0.142
AAAAATCA,0.105
GTTCAGGA,0.0304
CCATACAA,0.0586
CAAATTAC,-0.0296
GAGACGAC,-0.0712
CTTAGGAA,-0.0218
ACCCGAAG,0.00647
CACTTTCC,-0.103
GCGTTAGC,-0.0563
ACCGTAGT,0.0254
TGTGTAAA,0.142
CAATCACA,-0.013
AAACCCAA,0.0986
ATGAATTC,0.117
AACAATCA,0.126
ATCATAGG,-0.0259
AGAGCAGG,0.0559
TATCGAGA,0.0251
ACAAGACT,0.0293
CCCAGGGG,-0.119
GGTAGCCA,-0.101
CGGGGTTA,0.119
GGTTGCGA,0.167
ATAGCAAT,0.128
AATGTTGC,0.0146
AAGTTGCG,0.0873
CAGGCACG,-0.0596
CCCGCTCC,-0.383
AAGGCCGC,0.0278
AGATTGGC,-0.165
CTTGATTA,0.114
ATAGAGTG,0.0129
GGTGGACA,-0.0162
AAATTCGG,0.205
CTATATCA,0.164
AAAATGTA,0.0718
ACGTTCGA,-0.0272
AGATGAAC,0.109
ATGACCAG,0.00391
CAGGATAC,0.0332
AATCATAT,0.0761
TAGGGAAA,-0.0116
CTGTGTAA,0.0137
GTGACAAC,0.112
AAGCCTCC,-0.222
CTTTCATA,0.103
GAGATGAA,-0.00016
AAAATAGG,0.164
CCGGCGCC,0.12
GCTAGAGA,-0.0879
ACGGTTCG,-0.169
CGACTCTC,-0.0799
GAAAGACC,-0.132
TACACAAA,0.0458
CCACCCAG,0.03
CCGCCAAA,0.111
AACTACAC,0.0363
AATAGCTA,0.04
GATAGTCA,-0.0399
GTATGGAA,-0.0935
CCTGTGAA,0.101
GCTCTTAA,-0.097
GGGGTAGA,0.0331
AAAGCATA,-0.105
ATCTATAA,-0.00946
CAGGTACA,-0.0461
CATATTCC,-0.128
GGGCTCCA,-0.377
ATGTACAC,-0.016

(list continues)

Sequence	PBM E-score
CCCGGGGC	-0.0967
CCCTGACG	0.138
CACGCGGA	0.234
GAACCATC	0.044
GACCAAAA	0.117
GCGGATAA	0.171
AACTCAGT	0.106
AGGCCTCC	-0.158
GGATTCAC	0.0567
ATTGGCTG	-0.219
TATTGTAA	-0.042
TCACCTCA	-0.0482
CGGCTCAA	0.0638
AGCCCTAG	-0.16
GCTAACCA	-0.172
CGTGATGA	-0.0445
CATTAAAA	0.252
ATGCTAAT	0.0728
AAGTCGCT	-0.122
GGAGGCCC	-0.315
CGCCGGGC	0.0337
GAGCTTAC	-0.0886
AAAATCTC	0.101
CTTCGAGC	0.0305
GCCAAGAC	-0.164

Sequence	PBM E-score
CTGACCAC	0.0705
ATTCGCCA	0.158
CTAGTTTA	-0.106
CATTTACA	0.053
CGCGCTTA	0.254
AAAGTGGA	-0.0315
ACTCATAT	-0.028
AGGACGAG	-0.0678
GGTTGATA	0.138
GAGAGGCC	-0.0877
AATTGTGT	0.0191
ACTTGACG	-0.112
AAGGCCTA	-0.185
CTTTGCGA	0.124
ACCCTCTG	0.00968
CGTGTTAG	0.0392
GAAAGGTC	-0.135
GCATGTTA	0.0871
ACGACGTA	-0.166
